Measurements as given in article doi:10.1101/2025.09.10.675342.
Residue numbers refer to the chain shown, from its start. Where two headings read alike, the source gives them in different places. These are yes or no findings as the source states them, for the method shown. In cells and extracts the contact can be indirect. Some entries that bind do so weakly or less than the wild type. For some assays here: Where a sequence is shown, tags or fusion partners need not be part of it. Each block holds one substance with its values, some of them ahead of it.

Sequences of proteins named here, by UniProt entry; tags and fusion partners are left off. Residues count along the entry.
UniProt Q8NHL6, residues 24-650: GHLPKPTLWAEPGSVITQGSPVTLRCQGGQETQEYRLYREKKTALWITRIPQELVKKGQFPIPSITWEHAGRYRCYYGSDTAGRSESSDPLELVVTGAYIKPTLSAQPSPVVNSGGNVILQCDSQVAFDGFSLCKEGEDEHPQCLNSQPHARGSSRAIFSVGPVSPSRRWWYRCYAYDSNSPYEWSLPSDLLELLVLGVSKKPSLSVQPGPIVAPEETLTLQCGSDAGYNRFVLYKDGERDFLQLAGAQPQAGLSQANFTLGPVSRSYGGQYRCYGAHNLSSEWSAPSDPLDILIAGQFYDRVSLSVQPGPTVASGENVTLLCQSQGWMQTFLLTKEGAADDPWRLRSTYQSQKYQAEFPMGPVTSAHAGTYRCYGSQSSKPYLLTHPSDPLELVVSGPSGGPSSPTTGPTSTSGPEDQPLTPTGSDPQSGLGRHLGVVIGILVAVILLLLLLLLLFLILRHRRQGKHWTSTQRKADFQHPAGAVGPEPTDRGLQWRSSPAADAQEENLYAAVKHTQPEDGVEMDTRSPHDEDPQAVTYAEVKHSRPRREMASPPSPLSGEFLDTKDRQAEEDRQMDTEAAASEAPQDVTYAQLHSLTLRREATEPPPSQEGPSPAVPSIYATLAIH
UniProt Q15116, residues 25-288: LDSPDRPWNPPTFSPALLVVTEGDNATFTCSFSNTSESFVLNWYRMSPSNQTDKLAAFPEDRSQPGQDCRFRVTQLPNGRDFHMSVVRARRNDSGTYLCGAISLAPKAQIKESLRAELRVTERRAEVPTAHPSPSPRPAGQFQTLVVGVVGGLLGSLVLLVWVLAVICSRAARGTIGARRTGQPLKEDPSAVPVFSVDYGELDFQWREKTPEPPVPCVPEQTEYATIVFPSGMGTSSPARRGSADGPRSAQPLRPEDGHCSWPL
UniProt P78324, residues 31-504: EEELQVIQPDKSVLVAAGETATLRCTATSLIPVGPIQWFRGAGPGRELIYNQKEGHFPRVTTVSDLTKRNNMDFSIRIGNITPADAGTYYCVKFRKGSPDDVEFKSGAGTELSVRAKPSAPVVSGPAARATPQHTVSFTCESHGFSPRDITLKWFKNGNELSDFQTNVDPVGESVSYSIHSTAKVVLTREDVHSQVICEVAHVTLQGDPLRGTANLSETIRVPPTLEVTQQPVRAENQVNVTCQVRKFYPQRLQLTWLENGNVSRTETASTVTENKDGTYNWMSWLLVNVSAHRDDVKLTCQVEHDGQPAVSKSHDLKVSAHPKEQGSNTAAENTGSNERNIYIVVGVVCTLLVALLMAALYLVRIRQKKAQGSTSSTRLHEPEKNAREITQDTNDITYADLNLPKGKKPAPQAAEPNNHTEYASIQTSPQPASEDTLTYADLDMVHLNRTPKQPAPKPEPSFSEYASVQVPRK
UniProt P05107, residues 23-769: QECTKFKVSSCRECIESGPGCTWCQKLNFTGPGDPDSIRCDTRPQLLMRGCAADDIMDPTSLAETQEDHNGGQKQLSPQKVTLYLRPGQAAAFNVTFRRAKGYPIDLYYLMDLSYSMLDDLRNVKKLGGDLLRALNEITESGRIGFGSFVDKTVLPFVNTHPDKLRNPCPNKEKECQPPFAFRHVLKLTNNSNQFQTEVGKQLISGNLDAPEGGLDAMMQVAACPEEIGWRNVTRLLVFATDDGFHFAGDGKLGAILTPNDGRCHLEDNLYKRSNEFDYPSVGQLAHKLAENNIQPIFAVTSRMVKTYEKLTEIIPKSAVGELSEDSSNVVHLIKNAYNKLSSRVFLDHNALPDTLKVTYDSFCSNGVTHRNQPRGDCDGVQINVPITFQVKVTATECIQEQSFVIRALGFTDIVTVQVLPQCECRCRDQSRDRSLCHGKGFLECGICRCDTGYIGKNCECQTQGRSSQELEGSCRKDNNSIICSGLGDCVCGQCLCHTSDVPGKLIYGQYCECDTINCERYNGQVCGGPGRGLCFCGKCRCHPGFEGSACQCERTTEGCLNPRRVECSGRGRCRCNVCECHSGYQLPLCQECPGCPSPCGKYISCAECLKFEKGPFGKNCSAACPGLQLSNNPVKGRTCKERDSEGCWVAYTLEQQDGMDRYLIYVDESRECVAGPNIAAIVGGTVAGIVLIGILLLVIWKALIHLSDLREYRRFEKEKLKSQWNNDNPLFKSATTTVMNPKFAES
UniProt P11835, residues 24-771: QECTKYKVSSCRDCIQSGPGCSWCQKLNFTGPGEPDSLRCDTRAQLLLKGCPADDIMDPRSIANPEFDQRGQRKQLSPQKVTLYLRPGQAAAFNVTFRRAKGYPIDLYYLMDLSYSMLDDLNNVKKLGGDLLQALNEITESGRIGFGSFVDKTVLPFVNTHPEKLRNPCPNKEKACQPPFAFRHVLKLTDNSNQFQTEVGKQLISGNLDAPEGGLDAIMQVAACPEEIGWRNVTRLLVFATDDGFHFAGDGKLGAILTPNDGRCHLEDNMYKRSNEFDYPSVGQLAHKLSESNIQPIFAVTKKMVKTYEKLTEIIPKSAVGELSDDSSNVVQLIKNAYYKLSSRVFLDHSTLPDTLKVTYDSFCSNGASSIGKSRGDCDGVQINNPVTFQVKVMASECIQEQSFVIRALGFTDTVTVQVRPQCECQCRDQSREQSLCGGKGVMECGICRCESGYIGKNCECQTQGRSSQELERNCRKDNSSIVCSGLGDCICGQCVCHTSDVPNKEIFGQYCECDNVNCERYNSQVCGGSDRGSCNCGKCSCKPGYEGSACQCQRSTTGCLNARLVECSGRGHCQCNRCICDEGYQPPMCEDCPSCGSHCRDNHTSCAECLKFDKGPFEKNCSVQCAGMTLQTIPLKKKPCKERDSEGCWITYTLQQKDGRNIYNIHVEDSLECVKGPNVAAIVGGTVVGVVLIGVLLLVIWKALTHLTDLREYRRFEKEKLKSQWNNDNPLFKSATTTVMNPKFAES
UniProt P05555, residues 17-1153: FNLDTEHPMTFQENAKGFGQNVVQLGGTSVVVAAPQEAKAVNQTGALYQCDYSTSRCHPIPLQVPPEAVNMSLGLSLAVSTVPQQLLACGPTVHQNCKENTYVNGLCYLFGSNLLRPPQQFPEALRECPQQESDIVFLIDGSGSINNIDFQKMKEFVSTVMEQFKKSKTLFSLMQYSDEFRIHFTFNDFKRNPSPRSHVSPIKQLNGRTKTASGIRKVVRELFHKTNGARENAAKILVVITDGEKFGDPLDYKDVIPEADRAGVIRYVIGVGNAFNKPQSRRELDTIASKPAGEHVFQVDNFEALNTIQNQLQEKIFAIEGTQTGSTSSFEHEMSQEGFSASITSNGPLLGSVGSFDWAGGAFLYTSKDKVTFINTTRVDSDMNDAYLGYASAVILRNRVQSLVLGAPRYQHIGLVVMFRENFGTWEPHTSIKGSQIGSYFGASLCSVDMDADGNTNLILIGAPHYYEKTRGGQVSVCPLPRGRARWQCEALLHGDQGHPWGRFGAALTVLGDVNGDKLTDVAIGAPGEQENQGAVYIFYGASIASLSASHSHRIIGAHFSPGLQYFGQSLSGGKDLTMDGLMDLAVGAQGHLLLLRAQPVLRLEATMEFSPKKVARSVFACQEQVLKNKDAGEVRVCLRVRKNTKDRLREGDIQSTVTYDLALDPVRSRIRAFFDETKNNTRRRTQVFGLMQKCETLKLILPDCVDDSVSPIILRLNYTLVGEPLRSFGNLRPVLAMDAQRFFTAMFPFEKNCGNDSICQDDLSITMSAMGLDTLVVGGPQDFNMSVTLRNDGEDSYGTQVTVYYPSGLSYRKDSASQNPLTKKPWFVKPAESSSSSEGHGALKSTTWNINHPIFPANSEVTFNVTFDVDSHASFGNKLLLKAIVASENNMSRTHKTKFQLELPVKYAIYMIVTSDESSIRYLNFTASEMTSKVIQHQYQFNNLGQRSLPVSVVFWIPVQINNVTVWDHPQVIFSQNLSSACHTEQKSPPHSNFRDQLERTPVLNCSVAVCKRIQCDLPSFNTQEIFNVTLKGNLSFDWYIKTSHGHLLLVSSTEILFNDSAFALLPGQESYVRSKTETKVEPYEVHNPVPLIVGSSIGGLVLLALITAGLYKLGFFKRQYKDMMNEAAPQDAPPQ

How the values were obtained:
[1] = target: CLIP-tagged human LILRB1 (donor-labeled) (human) (UniProt Q8NHL6); test: FRET or BRET
[2] = target: CLIP-tagged human PD-1 (donor-labeled) (human) (UniProt Q15116); test: FRET or BRET
[3] = target: T1, CLIP-tagged human 2B4 (SLAMF4) (donor-labeled) (human) (UniProt Q9BZW8); test: FRET or BRET
T1 sequence (chain, CLIP-Surface 547 on the CLIP tag): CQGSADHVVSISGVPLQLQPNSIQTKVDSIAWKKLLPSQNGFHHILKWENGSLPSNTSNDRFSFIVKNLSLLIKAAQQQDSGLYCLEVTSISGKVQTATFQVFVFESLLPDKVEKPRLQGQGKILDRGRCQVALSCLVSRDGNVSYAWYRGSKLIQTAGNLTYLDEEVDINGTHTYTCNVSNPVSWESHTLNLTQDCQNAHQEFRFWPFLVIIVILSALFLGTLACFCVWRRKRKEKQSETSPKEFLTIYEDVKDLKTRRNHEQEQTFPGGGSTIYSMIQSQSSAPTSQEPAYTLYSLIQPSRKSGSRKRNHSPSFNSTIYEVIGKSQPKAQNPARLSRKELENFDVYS

[4] = target: CLIP-tagged human SIRPα version (V) 1 (donor-labeled) (human) (UniProt P78324); test: FRET or BRET
[5] = target: T2, SIRPα (endogenous, mouse BMDMs) (mouse (endogenous in BMDMs)) (UniProt P97797); test: co-IP
T2 sequence: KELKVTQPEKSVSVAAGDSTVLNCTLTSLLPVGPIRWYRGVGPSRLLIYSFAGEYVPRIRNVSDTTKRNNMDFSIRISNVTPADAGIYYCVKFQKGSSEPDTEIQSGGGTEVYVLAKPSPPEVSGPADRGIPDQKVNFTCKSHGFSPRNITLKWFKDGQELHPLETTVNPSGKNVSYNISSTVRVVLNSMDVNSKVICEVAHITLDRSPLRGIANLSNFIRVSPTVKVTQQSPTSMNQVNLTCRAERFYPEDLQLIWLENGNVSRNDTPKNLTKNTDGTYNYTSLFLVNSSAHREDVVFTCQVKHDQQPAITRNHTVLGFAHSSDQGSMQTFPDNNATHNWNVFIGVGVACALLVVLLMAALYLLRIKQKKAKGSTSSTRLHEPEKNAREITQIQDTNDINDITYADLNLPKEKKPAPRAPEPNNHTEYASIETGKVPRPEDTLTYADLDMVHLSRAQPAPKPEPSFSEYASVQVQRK

[6] = target: T2, SIRPα (endogenous, mouse BMDMs) (mouse (endogenous in BMDMs)); test: proximity ligation
[7] = target: T3, mouse SIRPα, wild type, re-expressed in SIRPα KO BMDMs (mouse) (UniProt P97797); test: proximity ligation
T3 sequence: T2 sequence

[8] = target: T4, mouse SIRPα^T96V in SIRPα KO BMDMs (mouse) (UniProt P97797); test: proximity ligation
T4 sequence: T2 sequence with T65V

[9] = target: T5, mouse SIRPα^R91T in SIRPα KO BMDMs (mouse) (UniProt P97797); test: proximity ligation
T5 sequence: T2 sequence with R60T

[10] = target: T6, CLIP-tagged mouse SLAMF7 (donor-labeled SLAMF7) (mouse) (UniProt Q8BHK6); test: FRET or BRET
T6 sequence (chain, CLIP-Surface 547 on the CLIP tag): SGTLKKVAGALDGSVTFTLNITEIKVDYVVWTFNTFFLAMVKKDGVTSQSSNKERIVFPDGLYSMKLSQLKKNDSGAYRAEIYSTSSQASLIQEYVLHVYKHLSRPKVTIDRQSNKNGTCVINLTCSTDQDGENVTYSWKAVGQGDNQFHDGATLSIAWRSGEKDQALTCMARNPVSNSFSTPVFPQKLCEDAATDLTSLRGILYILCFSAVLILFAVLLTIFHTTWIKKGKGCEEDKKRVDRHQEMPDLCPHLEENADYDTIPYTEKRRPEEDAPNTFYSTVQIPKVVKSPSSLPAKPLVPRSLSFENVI

[11] = target: T6, CLIP-tagged mouse SLAMF7 (donor-labeled SLAMF7) (mouse); test: FRET or BRET; remark: listed apart in the source

binding [1]: binds
binding [2]: binds
binding [3]: binds
binding [4]: binds
Substance: SNAP-tagged human CD18 (acceptor-labeled human CD18) (from UniProt P05107 23-769) (receptor)

binding [5]: binds
binding [6]: binds
binding [7]: binds
binding [8]: binds
binding [9]: no binding
Substance: CD18 (β2 integrin) (endogenous, mouse BMDMs) (from UniProt P11835 24-771) (receptor)

binding [10]: no binding (condition: with CD11b mAbs)
binding [11]: binds
Substance: SNAP-tagged mouse CD11b (acceptor-labeled CD11b) (from UniProt P05555 17-1153) (receptor)
